No constants are given. Whether binding was seen depends on the method and setting. In cells and extracts the contact can be indirect. Some results given as binding are weak or reduced against the parent protein; the word gives no strength. Tags and fused reporters may be left off the sequences shown.
T1: GSDMD-Renilla luciferase fusion (human) (UniProt P57764)
T1 sequence: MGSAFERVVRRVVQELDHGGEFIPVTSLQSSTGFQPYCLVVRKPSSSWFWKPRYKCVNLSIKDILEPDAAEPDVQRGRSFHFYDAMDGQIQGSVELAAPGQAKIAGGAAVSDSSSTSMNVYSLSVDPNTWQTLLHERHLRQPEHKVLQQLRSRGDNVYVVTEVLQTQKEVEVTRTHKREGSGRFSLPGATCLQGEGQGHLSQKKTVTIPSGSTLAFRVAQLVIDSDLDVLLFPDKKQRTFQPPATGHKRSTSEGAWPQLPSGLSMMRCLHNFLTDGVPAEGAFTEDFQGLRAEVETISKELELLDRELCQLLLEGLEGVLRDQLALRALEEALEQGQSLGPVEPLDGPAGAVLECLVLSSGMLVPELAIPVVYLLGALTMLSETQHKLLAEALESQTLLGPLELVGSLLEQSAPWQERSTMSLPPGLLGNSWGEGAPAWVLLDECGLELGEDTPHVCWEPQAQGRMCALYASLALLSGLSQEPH

B1: VHHGSDMD-1 (VHH)
VHH: QVQLVESGGALVQPGGSLRLSCSASGFTFSKYLMSWYRQAPGKERELVATITTAGGNTNYADSVKGRFTISRDNAKNTVYLQMNSLKPEDTAVYYCKASGGTIRTVNETYWGQGTQVTVSS
notes: Alpaca single-domain antibody; One entry is used for all tag variants; also called VHH AK-A04; VHH-1; not shown: C-terminal tag that differs by assay: LPETG-His (recombinant protein: SPR, nanoDSF, liposome assay), HA-His6 (ELISA), HA
B2: VHHGSDMD-5 (VHH)
VHH: QVQLVETGGGLVQPGGSLRLSCAASGFVFSINPMNWYRQAPGKERELVAYISMRGSTTNYADSVKGRFIISRDNAKNTLYLQMNSLKPEDTAVYYCNAPSRSVWGQGTQVTVSS
notes: Alpaca single-domain antibody; also called VHH AK-G04; VHH-5; not shown: C-terminal HA-His tag (recombinant protein: SPR, nanoDSF, liposome assay, ELISA) or HA tag (LUMIER)
B3: VHHGSDMD-3 (VHH)
VHH: QVQLVETGGGLVQPGGSLRLSCAASGFTLDIYNMGWFRQAPGKEREGVSCISSRYGTSTYYADSVKGRFTISRDNAKNTVYLQMNNLKPEDTAVYYCATVSWRFTTNQDVCLTPSVSGYWGQGTQVTVSS
notes: Alpaca single-domain antibody; One entry is used for all tag variants; also called VHH AK-H12; VHH-3; not shown: C-terminal tag that differs by assay: LPETG-His (recombinant protein: SPR, nanoDSF, liposome assay), HA-His6 (ELISA), HA

Biological target: T1, GSDMD-Renilla luciferase fusion (human)
Assay: LUMIER, co-immunoprecipitation of GSDMD-Renilla with VHH-HA from HEK293T lysates

binding	Binder
binds	B2
binds	B3

Binder	binding
B1	binds
